One series has as its target folate receptor (Homo sapiens, UniProt P15328). The experiment in a line: Binding affinity of ligand-drug conjugate to folic acid receptor (competition with FA-Cy5 tracer, polarized light). The conditions noted are these: read-out: Binding affinity to folic acid receptor IC50; KB cell plasma membrane protein, 1 nM FA-Cy5 tracer, 2 hours at 37° C.

Sequences of proteins named here, by UniProt entry; tags and fusion partners are left off. Residues count along the entry.
UniProt P15328, 25-234 limits assumed: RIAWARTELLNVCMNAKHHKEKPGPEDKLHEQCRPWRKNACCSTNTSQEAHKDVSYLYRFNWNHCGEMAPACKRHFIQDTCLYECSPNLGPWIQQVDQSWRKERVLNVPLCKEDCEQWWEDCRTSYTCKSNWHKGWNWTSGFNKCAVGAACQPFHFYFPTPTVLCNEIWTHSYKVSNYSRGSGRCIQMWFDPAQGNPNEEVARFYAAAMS

The structures given here were assigned with low confidence; some may be wrong.

For the molecule `CCC(C)C(C(CC(=O)N1CCCC1C(OC)C(C)C(=O)NC(Cc1ccccc1)C(=O)O)OC)N(C)C(=O)C(NC(=O)C(C(C)C)N(C)C(=O)OCc1ccc(OC2OC(C(=O)O)C(O)C(O)C2O)c(C(=O)NCCOCCOCCOCCn2cc(CCCNC(=O)C(CCCCN)NC(=O)CCn3cc(CCC(=O)NCCOCCOCCNC(=O)CCC(NC(=O)c4ccc(NCc5cnc6nc(N)[nH]c(=O)c6n5)cc4)C(=O)O)nn3)nn2)c1)C(C)C` (centres unmarked), the figures for the IC50 on folate receptor and in the series on KB cancer cell line were 43.8 nM and 0.95 nM, respectively.

As usually defined, the IC50 is the concentration needed to halve the response being measured.

The record behind these values is patent US11065343B2, “Compound bearing beta-galactoside-introduced self-immolative linker” (IntoCell Inc., priority 2016, dated 2021).
